A short description of this experiment: qHTS Assay for Lipid Storage Modulators in Drosophila S3 Cells.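 As to cell number change: cells counted by Cell Tracker Red CMTPX staining in the red channel.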 The note with it: BODIPY lipid droplet fluorescence, 18-24 h; for cell number change: measured here: cell count max response, cells fed with added oleic acid. A digest of the protocol:
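Laser-scanning cytometry quantifies lipid droplet accumulation (500–530 nm total intensity; droplet/cell object ratio) in oleic acid-fed (400 uM added) Drosophila S3 cells treated with a concentration series. 20 uM Triacsin C defined 100% inhibition.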

[1] abbreviates: measured here: cell number channel AC50, cells fed with added oleic acid.
The mark [2] stands for this setting: measured here: lipid fluorescence (Fed channel) AC50, cells fed with added oleic acid.

The values that follow come from PubChem BioAssay AID2685 (National Center for Advancing Translational Sciences (NCATS), 2010).

Structures are written as SMILES. The list shows a part of the results. These are further read-outs of the screen, such as a control signal, another cell line or another target. No call is given for them. Most of these compounds were active or inconclusive in the main read-out, so they are no random draw. Words in brackets tell the shape of the fitted curve; partial curves, single points and poor fits give uncertain potencies.

One may read the AC50 as the concentration at which the activity in the assay is half-maximal. Consider `CCOc1ccc(-c2nnc(NC(=O)Cc3ccc(OC)cc3)o2)cc1`, for which the cell number change turned out to be 34.6%. For the same molecule, the half-maximal activity concentration (AC50) under setting [1] was 29.1 µM [rising, partial curve].

Take `COc1ccccc1CCNC(=O)CNC(=O)c1ccc2ccccc2c1`: the cell number change worked out at 0.901%. Besides, the AC50 under setting [2] is 11.6 µM [falling, single point].

For the molecule `CC(C)n1c(N2CCN(C(=O)Nc3ccc(Cl)cc3)CC2)nc2ccccc21`, the cell number change is -50%. Also, the AC50 under setting [1] is 20.6 µM [falling, single point].

Take `CCn1nccc1C(=O)Nc1ccc(S(=O)(=O)NC23CC4CC(CC(C4)C2)C3)cc1`: the cell number change is -81.9%. In addition, the AC50 under setting [1] was 18.4 µM [falling, partial curve]. Under setting [2], the concentration at half-maximal activity (AC50) is 18.4 µM [falling, partial curve].

Turning to `Cc1ccc(N(C(=O)C2CCCC2)C2C=CS(=O)(=O)C2)cc1C` (stereo not given), the AC50 under setting [1] was 0.326 µM [falling, full curve, poor fit].

With `CCCCc1c(CCC)c(=N)c2ccccc2n1C`, the cell number change is -22.8%. The AC50 under setting [2] was 18.4 µM [falling, partial curve, poor fit].

With `COC(=O)[C@H](CC(C)C)NCc1cccc(CN[C@@H](CC(C)C)C(=O)OC)c1`, the cell number change amounted to 18.9%. Also, the AC50 under setting [2] is 23.1 µM [falling, single point].

Turning to `CNC(=O)COC(=O)c1ccccc1C(=O)c1ccc(Cl)c([N+](=O)[O-])c1`, the AC50 under setting [1] is 0.82 µM [rising, single point].

`O=C(CSc1nn(-c2ccc(F)cc2)c(=S)s1)NC(=O)NCc1ccco1`: the AC50 was 4.11 µM [rising, single point] under setting [1] and 1.64 µM [rising, partial curve] under setting [2].

In the case of `CC(C)(C)N1CC(COc2ccccc2)OC1=O` (stereo not given), the cell number change was -38.5%. Besides, the AC50 under setting [1] is 3.66 µM [falling, full curve]. In addition, the AC50 under setting [2] is 3.66 µM [falling, full curve].

Regarding `COC(=O)c1cc(OC)c(OC)cc1NC(=O)c1ccco1`, the cell number change is -0.277%. In addition, under setting [2], the AC50 was 1.84 µM [rising, partial curve].

`Cc1ccc(CSCCNC(=O)c2cccc([N+](=O)[O-])c2)cc1`: the cell number change was found to be 12.8%.

In the case of `Cc1cccc(NC(=S)NNC(=O)COc2ccc(Cl)cc2Cl)c1`, the cell number change is -25.8%. Moreover, the AC50 under setting [2] was 16.4 µM [falling, single point].

`C=CCn1c(SCCN2CCCC2)nc2c([nH]c3ccccc32)c1=O`: the cell number change turned out to be 47.9%. Besides, the concentration at half-maximal activity (AC50) under setting [1] was 18.4 µM [rising, partial curve, poor fit]. Under setting [2], the AC50 is 20.6 µM [rising, single point].

In the case of `Cc1ccc(S(=O)(=O)Oc2ccc3c(c2)O/C(=C\c2cccnc2)C3=O)cc1`, the cell number change turned out to be 60.2%. Moreover, under setting [1], the AC50 is 1.84 µM [rising, partial curve]. For the same molecule, under setting [2], the AC50 is 0.731 µM [rising, single point].

For `COc1ccc(-c2cc(=O)oc3cc(OC(C)C(=O)O)ccc23)cc1` (stereo not given), the cell number change was -7.81%. The AC50 under setting [2] was 0.0103 µM [falling, full curve, poor fit].

Turning to `O=C(Nc1cnn(Cc2ccc(Cl)cc2Cl)c1)c1noc2c1CCCC2`, the cell number change is -25.6%. Also, under setting [2], the AC50 is 23.1 µM [falling, single point].

For the molecule `Cc1ccc(C2(C)NC(=O)N(CC(=O)c3ccc(Cl)s3)C2=O)cc1` (stereo not given), the cell number change came to 6.74%. In addition, under setting [2], the AC50 is 32.6 µM [falling, single point].

Take `CCn1c(SCC(=O)Nc2ccc3c(c2)c2ccccc2n3CC)nnc1-c1cnccn1`: the cell number change is -3.78%. Under setting [2], the AC50 is 0.13 µM [rising, full curve, poor fit].

As to `Cc1cc(C)c(S(=O)(=O)c2ccccc2C)c(OCCO)n1`, the cell number change is -19.4%. For the same molecule, the AC50 under setting [1] was 0.058 µM [rising, full curve, poor fit].

Take `CCCNS(=O)(=O)c1ccc2c(c1)n(C)c(=O)n2C`: the cell number change came to 16.3%. In addition, the AC50 under setting [2] is 0.231 µM [rising, full curve, poor fit].

Turning to `COc1ccc(NC(=O)c2ccco2)cc1NC(=O)c1cc2ccccc2o1`, the cell number change was -7.8%. The AC50 under setting [2] is 29.1 µM [rising, single point].

In the case of `CC(=O)c1cccc(NC(=O)C2CCN(S(C)(=O)=O)CC2)c1`, the cell number change is -18.4%. In addition, the AC50 under setting [2] was 0.82 µM [falling, single point].

`CCOC(=O)/C=C1\SCC(=O)N1Cc1nnc(-c2ccccc2Br)o1`: the cell number change is -8.45%. Further, the AC50 under setting [2] is 3.66 µM [rising, full curve].

As to `CCCc1cc(=O)[nH]c(SCC(=O)Nc2ccc(OC(F)F)cc2)n1`, the cell number change was 3.43%. Also, the AC50 under setting [2] is 2.31 µM [falling, partial curve, poor fit].

As to `COc1cc(OC)cc(C(=O)NNC(=O)c2ccc(-n3cncn3)c([N+](=O)[O-])c2)c1`, the cell number change is 39%. In addition, the AC50 under setting [1] is 13 µM [rising, single point].

For `CCn1ncc(Br)c1C(=O)Nc1sc2c(c1C(N)=O)CCC2`, the AC50 under setting [2] was 0.103 µM [falling, full curve, poor fit].

Regarding `COc1ccc(-c2nc(=S)[nH][nH]2)cc1OC`, the cell number change amounted to 7.94%. Also, the AC50 under setting [1] is 6.51 µM [rising, single point].

For `O=C(CNC(=O)c1cnccc1C(F)(F)F)c1cccc(Cl)c1`, the cell number change stood at 0.196%. The AC50 under setting [2] is 1.16 µM [rising, partial curve, poor fit].

Take `CCC(CC)NC(=O)CSc1ccc(S(=O)(=O)N2CCCCC2)cn1`: the cell number change amounted to 75%. Also, the AC50 under setting [1] is 29.1 µM [rising, single point].

Regarding `COc1ccc(N2CSC3=C(C#N)C(c4cccc(OC)c4OC)CC(=O)N3C2)cc1` (stereo not given), the cell number change was -16.5%. Under setting [2], the AC50 is 6.51 µM [rising, partial curve, poor fit].

For the molecule `Cc1ccc(C)c(C(=O)N(Cc2nc(-c3ccc(Cl)cc3)no2)C(C)C)c1`, the cell number change worked out at 6.5%. Also, the AC50 under setting [1] was 3.26 µM [rising, single point]. Moreover, the AC50 under setting [2] is 0.13 µM [rising, full curve, poor fit].

On to `COc1cc([N+](=O)[O-])ccc1NC(=S)Nc1cc(C(=O)OC(C)C)cc(C(=O)OC(C)C)c1`, for which the cell number change is -15%. For the same molecule, the AC50 under setting [2] was 29.1 µM [falling, single point].

With `COc1cc(C2NC(=O)NC(C)=C2C(=O)OCc2ccc(C)cc2)cc(OC)c1O` (stereo not given), the cell number change was 14.3%. Under setting [2], the AC50 is 16.4 µM [rising, single point].

As to `COc1ccc(Br)c(C(=O)OCC(=O)NC2CC2)c1`, the cell number change stood at 24.4%. For the same molecule, the AC50 under setting [2] was 23.1 µM [falling, single point].

With `Cc1c(Cc2ccccc2)c(=O)oc2c(CN(C)C)c(O)c(Cl)cc12`, the cell number change is -32.7%. Also, the AC50 under setting [2] was 29.1 µM [falling, single point].

Regarding `COc1ccccc1C(=O)N(Cc1ccc(Cl)cc1)C1CCS(=O)(=O)C1` (stereo not given), the AC50 under setting [2] is 9.2 µM [falling, partial curve].

Take `COc1cc2c(cc1OC)CN(c1ccc(F)cc1[N+](=O)[O-])CC2`: the cell number change amounted to 16.2%. Also, the AC50 under setting [2] was 0.411 µM [rising, full curve, poor fit].

For `O=C(COC(=O)CNC(=O)C1CCCCC1)Nc1ccc(Cl)cc1F`, the cell number change was -10%. Besides, the AC50 under setting [1] is 0.164 µM [rising, full curve, poor fit].

Take `O=C(Cn1cnc2cc([N+](=O)[O-])ccc2c1=O)NC(c1ccccc1)c1ccccc1`: the cell number change was found to be 43.9%. The AC50 under setting [1] was 29.1 µM [rising, single point]. Also, the AC50 under setting [2] is 6.51 µM [falling, single point].

As for `Cc1ccc(-c2[nH]nc3c2C(c2ccsc2)C(C#N)=C(N)O3)cc1` (stereo not given), the cell number change amounted to 4.68%. In addition, under setting [1], the concentration at half-maximal activity (AC50) was 0.291 µM [rising, partial curve, poor fit]. Moreover, the half-maximal activity concentration (AC50) under setting [2] was 6.51 µM [rising, partial curve].

As for `Cc1cccc(N(CC(=O)NCc2ccco2)C(=O)CCC(=O)Nc2ccccn2)c1C`, the cell number change is -4.27%.

`COc1ccc(C(=O)NN=C(Cc2ccccc2)Cc2ccccc2)cc1OC`: the cell number change was -16.8%. Further, the AC50 under setting [2] is 3.66 µM [rising, single point].

With `Cc1ccc(S(=O)(=O)NCCC(=O)NNC(=O)c2ccccc2Cl)cc1C`, the cell number change was found to be 17.9%. Also, the AC50 under setting [2] was 13 µM [rising, single point].

As to `Cc1ccc(S(=O)(=O)Nc2c(NC3CCCCC3)c3ccccc3oc2=O)cc1`, the cell number change is -38.4%. Further, the half-maximal activity concentration (AC50) under setting [1] is 0.0082 µM [falling, full curve, poor fit]. Besides, the AC50 under setting [2] was 6.51 µM [falling, single point].

In the case of `CCCN=C1NC(=O)C(CC(=O)NCCc2ccccc2)S1` (stereo not given), the cell number change was -66.5%. Also, under setting [1], the AC50 is 16.4 µM [falling, partial curve]. Besides, under setting [2], the half-maximal activity concentration (AC50) is 4.11 µM [falling, partial curve, poor fit].

Turning to `Oc1ccc(N=Nc2n[nH]c(-c3ccc(Cl)cc3)n2)cc1`, the cell number change turned out to be 6.32%. Under setting [2], the AC50 was 0.00411 µM [rising, full curve, poor fit].

Turning to `CC(C)c1ccc(NC(=O)C2CC2c2ccccc2)cc1` (stereo not given), the cell number change is -31.6%. In addition, under setting [1], the AC50 was 29.1 µM [falling, single point]. Further, the AC50 under setting [2] is 29.1 µM [falling, single point].

On to `O=C1NC(=Nc2ccccc2Cl)S/C1=C\c1cc([N+](=O)[O-])ccc1O`, for which the cell number change was 21.8%. The AC50 under setting [2] is 6.51 µM [rising, single point].

As to `Cc1cc(C(=O)OCC(=O)Nc2ccccc2[N+](=O)[O-])c2ccccc2n1`, the cell number change is -3.21%. The concentration at half-maximal activity (AC50) under setting [2] was 2.31 µM [falling, partial curve].

On to `Cc1cccc(NC(=O)c2cccc(S(=O)(=O)N3CCc4ccccc4C3)c2)n1`, for which the cell number change is -33.4%. For the same molecule, the AC50 under setting [1] is 18.4 µM [falling, partial curve, poor fit]. For the same molecule, under setting [2], the AC50 was 3.66 µM [rising, single point].

On to `CCN(CC(=O)Nc1c(F)cccc1F)C(=O)c1ccc(N2CCCC2=O)cc1`, for which the cell number change was -9.64%.

Take `O=C(COC(=O)c1ccccc1Cl)NC1CCCCCCC1`: the cell number change was determined as 6.06%.

Turning to `CCOC(=O)Cc1csc(NC(=O)c2csc(C)c2)n1`, under setting [1], the AC50 is 3.26 µM [falling, partial curve].

Regarding `CN1C(=O)CC(C(=O)O)SC1=Nc1cc(Cl)cc(Cl)c1` (stereo not given), the cell number change is -11.5%. Moreover, the AC50 under setting [2] was 13 µM [rising, partial curve].

Turning to `COc1cc(CN2CCC(CCC(=O)NC3CC3)CC2)cc(Cl)c1OC`, the cell number change turned out to be 2.64%. The AC50 under setting [2] is 16.4 µM [rising, partial curve].

Consider `C[C@H](NC(=O)C1CCN(S(=O)(=O)c2ccccc2)CC1)C(=O)NCc1cccc(Cl)c1`, for which the AC50 under setting [2] was 0.58 µM [rising, single point].
